Data on 38 targets can be found in the supplement of paper PMC7666118.

Sequences of proteins named here, by UniProt entry; tags and fusion partners are left off. A change or cut given only in a name is not applied to a line headed by its entry.
UniProt Q9NXF1: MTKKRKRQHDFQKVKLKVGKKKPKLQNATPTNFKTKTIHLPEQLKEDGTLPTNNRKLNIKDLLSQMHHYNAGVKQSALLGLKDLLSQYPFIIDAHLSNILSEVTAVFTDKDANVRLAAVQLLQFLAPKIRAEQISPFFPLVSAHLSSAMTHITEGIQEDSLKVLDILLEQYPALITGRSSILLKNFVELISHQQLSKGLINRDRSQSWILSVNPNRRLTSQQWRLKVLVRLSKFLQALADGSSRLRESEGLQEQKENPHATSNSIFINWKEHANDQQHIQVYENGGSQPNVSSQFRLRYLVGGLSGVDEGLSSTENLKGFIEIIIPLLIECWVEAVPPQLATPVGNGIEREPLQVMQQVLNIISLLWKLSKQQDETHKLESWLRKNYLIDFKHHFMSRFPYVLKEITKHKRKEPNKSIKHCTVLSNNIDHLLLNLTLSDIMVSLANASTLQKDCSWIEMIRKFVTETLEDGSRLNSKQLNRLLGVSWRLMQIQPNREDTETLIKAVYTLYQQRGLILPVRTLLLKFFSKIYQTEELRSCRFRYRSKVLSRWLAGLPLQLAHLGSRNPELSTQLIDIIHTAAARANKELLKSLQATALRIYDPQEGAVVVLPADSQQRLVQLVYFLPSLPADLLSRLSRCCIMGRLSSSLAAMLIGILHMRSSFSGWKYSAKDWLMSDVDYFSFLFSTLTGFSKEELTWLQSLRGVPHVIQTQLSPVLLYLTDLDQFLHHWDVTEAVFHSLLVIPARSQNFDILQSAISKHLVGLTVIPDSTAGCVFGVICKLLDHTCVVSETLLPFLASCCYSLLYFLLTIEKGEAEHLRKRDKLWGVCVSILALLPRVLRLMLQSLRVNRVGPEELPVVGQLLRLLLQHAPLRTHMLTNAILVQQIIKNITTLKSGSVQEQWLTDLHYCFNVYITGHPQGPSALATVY
UniProt Q9BXI6: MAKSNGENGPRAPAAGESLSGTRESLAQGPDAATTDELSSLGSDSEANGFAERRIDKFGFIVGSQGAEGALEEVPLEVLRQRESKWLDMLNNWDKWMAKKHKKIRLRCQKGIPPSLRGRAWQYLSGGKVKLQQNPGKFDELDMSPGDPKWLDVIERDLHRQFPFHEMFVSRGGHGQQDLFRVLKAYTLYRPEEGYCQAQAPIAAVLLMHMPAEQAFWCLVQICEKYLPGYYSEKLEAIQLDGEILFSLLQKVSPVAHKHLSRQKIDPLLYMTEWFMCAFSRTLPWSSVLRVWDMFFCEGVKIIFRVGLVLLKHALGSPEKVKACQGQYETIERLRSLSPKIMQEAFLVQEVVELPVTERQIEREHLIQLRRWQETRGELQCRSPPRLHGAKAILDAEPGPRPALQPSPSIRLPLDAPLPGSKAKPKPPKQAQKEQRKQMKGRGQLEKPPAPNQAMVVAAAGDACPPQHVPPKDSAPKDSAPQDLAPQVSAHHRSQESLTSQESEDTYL
UniProt Q9NUM4, whole entry: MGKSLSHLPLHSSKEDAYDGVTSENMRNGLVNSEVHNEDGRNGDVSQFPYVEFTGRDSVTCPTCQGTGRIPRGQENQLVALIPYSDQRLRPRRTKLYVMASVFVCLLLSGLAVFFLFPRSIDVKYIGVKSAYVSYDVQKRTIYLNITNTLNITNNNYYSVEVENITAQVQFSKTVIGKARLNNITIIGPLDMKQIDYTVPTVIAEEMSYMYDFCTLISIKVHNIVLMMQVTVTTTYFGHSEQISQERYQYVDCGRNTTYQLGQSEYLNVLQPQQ
UniProt P63313: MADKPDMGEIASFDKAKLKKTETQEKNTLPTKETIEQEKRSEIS
UniProt P19438, whole entry: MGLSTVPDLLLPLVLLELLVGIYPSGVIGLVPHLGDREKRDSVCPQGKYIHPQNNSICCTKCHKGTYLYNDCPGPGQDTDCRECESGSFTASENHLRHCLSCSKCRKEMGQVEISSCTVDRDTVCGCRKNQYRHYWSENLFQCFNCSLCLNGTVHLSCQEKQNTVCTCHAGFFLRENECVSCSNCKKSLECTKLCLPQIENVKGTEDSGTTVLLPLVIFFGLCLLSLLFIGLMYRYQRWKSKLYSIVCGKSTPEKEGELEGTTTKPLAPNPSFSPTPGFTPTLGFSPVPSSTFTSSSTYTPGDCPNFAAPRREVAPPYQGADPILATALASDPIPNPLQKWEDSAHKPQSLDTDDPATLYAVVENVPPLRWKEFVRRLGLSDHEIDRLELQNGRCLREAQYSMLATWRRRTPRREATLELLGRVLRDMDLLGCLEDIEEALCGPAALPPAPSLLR
UniProt Q8IV04: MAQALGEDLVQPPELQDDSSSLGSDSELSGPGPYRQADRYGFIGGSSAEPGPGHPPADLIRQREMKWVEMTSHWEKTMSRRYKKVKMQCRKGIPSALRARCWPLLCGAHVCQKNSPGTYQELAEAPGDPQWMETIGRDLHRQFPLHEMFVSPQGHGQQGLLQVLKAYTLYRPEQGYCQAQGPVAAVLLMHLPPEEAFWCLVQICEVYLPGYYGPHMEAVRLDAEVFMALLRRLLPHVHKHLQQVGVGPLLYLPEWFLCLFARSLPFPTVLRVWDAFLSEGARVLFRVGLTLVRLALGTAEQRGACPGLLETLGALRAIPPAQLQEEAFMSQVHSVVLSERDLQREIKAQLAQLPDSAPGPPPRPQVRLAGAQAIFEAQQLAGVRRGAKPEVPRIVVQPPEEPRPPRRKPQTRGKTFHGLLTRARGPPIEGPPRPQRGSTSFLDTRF
UniProt Q9BVX2: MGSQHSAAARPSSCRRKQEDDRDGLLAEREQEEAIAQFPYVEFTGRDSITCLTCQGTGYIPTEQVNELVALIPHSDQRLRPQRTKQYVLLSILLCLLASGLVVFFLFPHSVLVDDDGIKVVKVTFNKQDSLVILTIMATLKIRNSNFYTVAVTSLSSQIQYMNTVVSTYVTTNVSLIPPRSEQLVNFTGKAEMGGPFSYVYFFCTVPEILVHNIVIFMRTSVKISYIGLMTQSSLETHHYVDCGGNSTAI
UniProt O15321, whole entry: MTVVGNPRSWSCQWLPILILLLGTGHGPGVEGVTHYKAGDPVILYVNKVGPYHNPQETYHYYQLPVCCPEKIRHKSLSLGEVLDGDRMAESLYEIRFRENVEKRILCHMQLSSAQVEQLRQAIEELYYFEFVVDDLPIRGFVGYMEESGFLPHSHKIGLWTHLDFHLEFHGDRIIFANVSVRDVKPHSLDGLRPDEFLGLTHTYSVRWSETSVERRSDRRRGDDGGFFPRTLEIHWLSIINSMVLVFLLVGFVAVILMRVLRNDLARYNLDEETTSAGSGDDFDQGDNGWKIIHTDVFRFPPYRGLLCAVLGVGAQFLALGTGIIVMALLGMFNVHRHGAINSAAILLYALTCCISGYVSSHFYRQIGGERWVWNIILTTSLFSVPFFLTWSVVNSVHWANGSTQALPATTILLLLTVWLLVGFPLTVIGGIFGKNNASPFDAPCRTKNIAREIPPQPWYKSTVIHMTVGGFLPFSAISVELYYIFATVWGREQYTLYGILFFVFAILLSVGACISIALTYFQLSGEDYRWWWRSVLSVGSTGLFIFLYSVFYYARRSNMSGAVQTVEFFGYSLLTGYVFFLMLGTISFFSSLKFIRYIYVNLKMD
UniProt Q96DC7: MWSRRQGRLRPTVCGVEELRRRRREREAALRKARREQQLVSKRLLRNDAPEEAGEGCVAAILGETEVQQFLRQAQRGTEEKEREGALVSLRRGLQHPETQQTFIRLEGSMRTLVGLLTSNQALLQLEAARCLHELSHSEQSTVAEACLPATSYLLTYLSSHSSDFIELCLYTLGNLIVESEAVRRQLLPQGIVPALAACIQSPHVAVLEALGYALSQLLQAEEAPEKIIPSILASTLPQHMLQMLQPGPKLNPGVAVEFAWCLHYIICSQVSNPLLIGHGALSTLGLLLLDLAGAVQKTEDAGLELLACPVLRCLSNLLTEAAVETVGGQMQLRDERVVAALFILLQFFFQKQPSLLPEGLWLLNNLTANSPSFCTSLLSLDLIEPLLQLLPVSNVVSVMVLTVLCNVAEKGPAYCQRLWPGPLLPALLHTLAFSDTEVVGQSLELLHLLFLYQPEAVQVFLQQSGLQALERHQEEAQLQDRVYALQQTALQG
UniProt Q9NPJ3: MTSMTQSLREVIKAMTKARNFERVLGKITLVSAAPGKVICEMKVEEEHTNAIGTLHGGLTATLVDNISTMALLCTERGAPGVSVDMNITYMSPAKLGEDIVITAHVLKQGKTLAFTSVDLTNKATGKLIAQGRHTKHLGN
UniProt Q9H061: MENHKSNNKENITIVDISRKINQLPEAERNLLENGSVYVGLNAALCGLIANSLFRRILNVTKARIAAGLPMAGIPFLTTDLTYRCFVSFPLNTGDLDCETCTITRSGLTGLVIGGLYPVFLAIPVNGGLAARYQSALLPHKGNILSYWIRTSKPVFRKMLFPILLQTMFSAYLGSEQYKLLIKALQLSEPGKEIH
UniProt Q9NUW8, whole entry: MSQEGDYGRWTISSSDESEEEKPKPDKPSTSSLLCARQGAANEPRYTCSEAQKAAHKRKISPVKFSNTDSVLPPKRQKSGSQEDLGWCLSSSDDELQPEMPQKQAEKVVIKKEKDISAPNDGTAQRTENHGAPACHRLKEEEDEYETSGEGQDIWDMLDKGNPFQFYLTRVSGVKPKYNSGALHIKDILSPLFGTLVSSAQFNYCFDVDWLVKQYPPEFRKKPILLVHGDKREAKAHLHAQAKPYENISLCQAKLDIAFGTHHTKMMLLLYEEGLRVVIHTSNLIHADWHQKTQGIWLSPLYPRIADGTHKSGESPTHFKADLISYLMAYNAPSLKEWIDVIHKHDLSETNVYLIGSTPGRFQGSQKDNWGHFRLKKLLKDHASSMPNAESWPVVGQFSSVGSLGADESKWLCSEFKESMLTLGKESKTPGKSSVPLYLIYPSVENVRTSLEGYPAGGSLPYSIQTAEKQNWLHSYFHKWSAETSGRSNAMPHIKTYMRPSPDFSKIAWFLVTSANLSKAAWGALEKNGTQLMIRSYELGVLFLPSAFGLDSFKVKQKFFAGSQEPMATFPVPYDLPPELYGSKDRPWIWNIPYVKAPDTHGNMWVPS
UniProt P28908: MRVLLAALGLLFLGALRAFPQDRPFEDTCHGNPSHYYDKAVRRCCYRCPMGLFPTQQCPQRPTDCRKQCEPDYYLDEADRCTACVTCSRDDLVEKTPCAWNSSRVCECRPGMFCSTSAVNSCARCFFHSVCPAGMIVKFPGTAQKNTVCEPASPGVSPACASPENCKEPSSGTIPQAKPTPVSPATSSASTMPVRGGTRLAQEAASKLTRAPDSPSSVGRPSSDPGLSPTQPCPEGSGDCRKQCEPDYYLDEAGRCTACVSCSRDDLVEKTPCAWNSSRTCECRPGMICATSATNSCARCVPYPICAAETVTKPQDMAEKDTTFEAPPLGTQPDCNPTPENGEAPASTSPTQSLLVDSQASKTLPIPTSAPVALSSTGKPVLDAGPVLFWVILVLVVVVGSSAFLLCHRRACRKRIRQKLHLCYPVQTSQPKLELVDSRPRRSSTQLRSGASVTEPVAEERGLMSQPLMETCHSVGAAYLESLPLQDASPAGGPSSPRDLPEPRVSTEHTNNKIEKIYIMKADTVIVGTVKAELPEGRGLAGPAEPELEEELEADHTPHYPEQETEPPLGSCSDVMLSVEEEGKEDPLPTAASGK
UniProt Q9P016: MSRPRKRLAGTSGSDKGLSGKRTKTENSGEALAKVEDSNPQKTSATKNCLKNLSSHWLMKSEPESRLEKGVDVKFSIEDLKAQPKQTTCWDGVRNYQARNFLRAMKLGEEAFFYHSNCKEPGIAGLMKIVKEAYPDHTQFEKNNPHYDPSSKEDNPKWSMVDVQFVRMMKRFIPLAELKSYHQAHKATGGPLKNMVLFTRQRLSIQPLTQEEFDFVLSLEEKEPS
UniProt Q12788: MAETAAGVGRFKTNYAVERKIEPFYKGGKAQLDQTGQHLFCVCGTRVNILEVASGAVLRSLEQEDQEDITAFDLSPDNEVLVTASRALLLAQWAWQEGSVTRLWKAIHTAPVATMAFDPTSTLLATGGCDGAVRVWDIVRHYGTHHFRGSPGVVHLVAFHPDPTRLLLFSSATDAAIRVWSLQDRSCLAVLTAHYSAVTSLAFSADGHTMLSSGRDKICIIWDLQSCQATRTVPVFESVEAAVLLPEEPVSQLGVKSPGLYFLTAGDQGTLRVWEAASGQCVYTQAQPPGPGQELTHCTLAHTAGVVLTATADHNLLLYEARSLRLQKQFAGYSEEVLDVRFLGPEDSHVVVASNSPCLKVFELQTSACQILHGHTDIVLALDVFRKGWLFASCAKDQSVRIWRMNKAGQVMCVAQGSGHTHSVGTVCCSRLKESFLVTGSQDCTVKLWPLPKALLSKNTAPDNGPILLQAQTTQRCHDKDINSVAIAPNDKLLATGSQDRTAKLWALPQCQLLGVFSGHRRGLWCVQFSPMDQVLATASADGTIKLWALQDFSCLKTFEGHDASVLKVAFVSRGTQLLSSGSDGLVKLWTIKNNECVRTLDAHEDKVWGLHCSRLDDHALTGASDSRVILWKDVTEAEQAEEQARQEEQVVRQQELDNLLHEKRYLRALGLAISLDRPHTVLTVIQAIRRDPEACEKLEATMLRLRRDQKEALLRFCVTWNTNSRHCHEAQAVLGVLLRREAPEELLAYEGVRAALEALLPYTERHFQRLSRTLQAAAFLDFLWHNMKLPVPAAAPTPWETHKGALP

This is one part of the list.

Compound in this assay: COc1ccc(Cn2ccc3ccc(C(=O)NO)cc32)cc1
Put plainly: dose-dependent thermal stabilisation call (2D-TPP, DLPTP, 10% FDR) (binary (1 = stabilised)); higher = stabilised by the compound. Conditions: system: HL-60 intact cells; concentration range 0.04-10 µM.
As to TJP2 (UniProt Q9UDY2), the “dose-dependent thermal stabilisation call” value was inactive: 0.

With TLK1 (UniProt Q9UKI8), the “dose-dependent thermal stabilisation call” value was inactive: 0.

Consider TBC1D25 (UniProt Q3MII6), for which the “dose-dependent thermal stabilisation call” value was inactive: 0.

Turning to TBXAS1 (UniProt P24557), the “dose-dependent thermal stabilisation call” value was inactive: 0.

With TEX10 (UniProt Q9NXF1), the “dose-dependent thermal stabilisation call” value is inactive: 0.

Turning to TBC1D10A (UniProt Q9BXI6), the “dose-dependent thermal stabilisation call” value is inactive: 0.

As to THUMPD1 (UniProt Q9NXG2), the “dose-dependent thermal stabilisation call” value is inactive: 0.

With TMEM106B (UniProt Q9NUM4), the “dose-dependent thermal stabilisation call” value was inactive: 0.

For TMSB10 (UniProt P63313), the “dose-dependent thermal stabilisation call” value is inactive: 0.

For TATDN1 (UniProt Q6P1N9), the “dose-dependent thermal stabilisation call” value is inactive: 0.

As to TNFRSF1A (UniProt P19438), the “dose-dependent thermal stabilisation call” value is inactive: 0.

Consider TBC1D10C (UniProt Q8IV04), for which the “dose-dependent thermal stabilisation call” value is inactive: 0.

With TMEM49 (UniProt Q96GC9), the “dose-dependent thermal stabilisation call” value was inactive: 0.

As to TMEM106C (UniProt Q9BVX2), the “dose-dependent thermal stabilisation call” value was inactive: 0.

Turning to TM9SF1 (UniProt O15321), the “dose-dependent thermal stabilisation call” value is inactive: 0.

Take TMCO6 (UniProt Q96DC7): the “dose-dependent thermal stabilisation call” value was inactive: 0.

In the case of THEM2 (UniProt Q9NPJ3), the “dose-dependent thermal stabilisation call” value is inactive: 0.

As for TMEM126A (UniProt Q9H061), the “dose-dependent thermal stabilisation call” value was inactive: 0.

In the case of TPR (UniProt P12270), the “dose-dependent thermal stabilisation call” value is inactive: 0.

For the target TMEM14C (UniProt Q9P0S9), the “dose-dependent thermal stabilisation call” value was inactive: 0.

As for TAP1 (UniProt Q03518), the “dose-dependent thermal stabilisation call” value is inactive: 0.

Turning to TDP1 (UniProt Q9NUW8), the “dose-dependent thermal stabilisation call” value was inactive: 0.

Consider TMEM5 (UniProt Q9Y2B1), for which the “dose-dependent thermal stabilisation call” value was inactive: 0.

As to TLE4 (UniProt Q04727), the “dose-dependent thermal stabilisation call” value is inactive: 0.

In the case of TCF20 (UniProt Q9UGU0), the “dose-dependent thermal stabilisation call” value was inactive: 0.

Turning to TM9SF2 (UniProt Q99805), the “dose-dependent thermal stabilisation call” value is inactive: 0.

As to TFB2M (UniProt Q9H5Q4), the “dose-dependent thermal stabilisation call” value is inactive: 0.

For TCP10L (UniProt Q8TDR4), the “dose-dependent thermal stabilisation call” value was inactive: 0.

As to TIAL1 (UniProt Q01085), the “dose-dependent thermal stabilisation call” value was inactive: 0.

In the case of TMEM63A (UniProt O94886), the “dose-dependent thermal stabilisation call” value was inactive: 0.

As to TNFRSF8 (UniProt P28908), the “dose-dependent thermal stabilisation call” value was inactive: 0.

Consider TAOK2 (UniProt Q9UL54), for which the “dose-dependent thermal stabilisation call” value is inactive: 0.

Consider TIMM17A (UniProt Q99595), for which the “dose-dependent thermal stabilisation call” value is inactive: 0.

On to THYN1 (UniProt Q9P016), for which the “dose-dependent thermal stabilisation call” value was inactive: 0.

Consider TBL3 (UniProt Q12788), for which the “dose-dependent thermal stabilisation call” value is inactive: 0.

With TBCA (UniProt O75347), the “dose-dependent thermal stabilisation call” value is inactive: 0.

On to TFDP1 (UniProt Q14186), for which the “dose-dependent thermal stabilisation call” value is inactive: 0.

As to TAF9B (UniProt Q9HBM6), the “dose-dependent thermal stabilisation call” value is inactive: 0.
